# Results: the supplement of paper PMC7666118
# Protein sequences, listed by entry. Tags and fused reporters are not part of them. Lines headed by an entry give the natural chain unless they say otherwise; changes in a name come on top.
# UniProt Q15906, whole entry: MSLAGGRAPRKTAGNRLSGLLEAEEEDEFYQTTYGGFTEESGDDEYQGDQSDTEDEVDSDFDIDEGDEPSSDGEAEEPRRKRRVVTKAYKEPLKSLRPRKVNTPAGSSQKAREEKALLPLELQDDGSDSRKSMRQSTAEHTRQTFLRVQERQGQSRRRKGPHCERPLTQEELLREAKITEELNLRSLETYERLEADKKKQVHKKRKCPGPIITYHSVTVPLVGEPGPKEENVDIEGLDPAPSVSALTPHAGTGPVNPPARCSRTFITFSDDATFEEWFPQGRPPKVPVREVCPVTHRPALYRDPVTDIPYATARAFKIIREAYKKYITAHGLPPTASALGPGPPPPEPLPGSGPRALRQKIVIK
# UniProt Q9UBH6: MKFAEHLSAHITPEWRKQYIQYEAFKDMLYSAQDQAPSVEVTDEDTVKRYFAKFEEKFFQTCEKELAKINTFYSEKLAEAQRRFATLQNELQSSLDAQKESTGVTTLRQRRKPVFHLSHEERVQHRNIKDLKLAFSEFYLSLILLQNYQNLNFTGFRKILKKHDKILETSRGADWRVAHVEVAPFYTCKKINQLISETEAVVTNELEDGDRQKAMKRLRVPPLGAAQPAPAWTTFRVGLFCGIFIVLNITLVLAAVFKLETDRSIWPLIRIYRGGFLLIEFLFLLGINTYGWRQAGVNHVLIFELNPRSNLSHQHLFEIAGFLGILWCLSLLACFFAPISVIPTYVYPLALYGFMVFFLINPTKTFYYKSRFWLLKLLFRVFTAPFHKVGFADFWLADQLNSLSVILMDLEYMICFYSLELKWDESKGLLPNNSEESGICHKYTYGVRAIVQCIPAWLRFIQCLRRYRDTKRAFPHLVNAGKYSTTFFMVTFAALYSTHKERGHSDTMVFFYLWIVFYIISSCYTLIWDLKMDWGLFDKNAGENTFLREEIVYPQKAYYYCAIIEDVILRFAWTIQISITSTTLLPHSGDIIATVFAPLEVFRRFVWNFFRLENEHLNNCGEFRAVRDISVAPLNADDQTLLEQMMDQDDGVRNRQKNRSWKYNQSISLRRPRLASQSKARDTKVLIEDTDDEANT
# UniProt Q9H267: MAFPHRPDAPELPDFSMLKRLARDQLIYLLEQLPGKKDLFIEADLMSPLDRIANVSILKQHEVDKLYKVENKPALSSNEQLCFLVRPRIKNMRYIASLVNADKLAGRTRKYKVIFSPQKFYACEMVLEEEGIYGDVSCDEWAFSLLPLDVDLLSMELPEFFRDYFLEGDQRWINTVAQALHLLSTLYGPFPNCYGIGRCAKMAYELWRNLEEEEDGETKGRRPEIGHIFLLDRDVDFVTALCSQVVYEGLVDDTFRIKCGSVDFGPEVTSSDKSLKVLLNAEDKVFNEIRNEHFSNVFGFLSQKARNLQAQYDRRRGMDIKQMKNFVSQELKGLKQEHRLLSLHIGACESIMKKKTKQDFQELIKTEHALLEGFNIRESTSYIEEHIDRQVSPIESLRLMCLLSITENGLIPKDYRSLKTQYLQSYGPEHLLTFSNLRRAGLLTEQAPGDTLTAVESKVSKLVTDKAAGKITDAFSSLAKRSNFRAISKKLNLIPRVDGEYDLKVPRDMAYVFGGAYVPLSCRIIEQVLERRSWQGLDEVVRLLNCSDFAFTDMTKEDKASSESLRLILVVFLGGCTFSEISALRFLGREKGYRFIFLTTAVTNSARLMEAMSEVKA
# UniProt Q562E7: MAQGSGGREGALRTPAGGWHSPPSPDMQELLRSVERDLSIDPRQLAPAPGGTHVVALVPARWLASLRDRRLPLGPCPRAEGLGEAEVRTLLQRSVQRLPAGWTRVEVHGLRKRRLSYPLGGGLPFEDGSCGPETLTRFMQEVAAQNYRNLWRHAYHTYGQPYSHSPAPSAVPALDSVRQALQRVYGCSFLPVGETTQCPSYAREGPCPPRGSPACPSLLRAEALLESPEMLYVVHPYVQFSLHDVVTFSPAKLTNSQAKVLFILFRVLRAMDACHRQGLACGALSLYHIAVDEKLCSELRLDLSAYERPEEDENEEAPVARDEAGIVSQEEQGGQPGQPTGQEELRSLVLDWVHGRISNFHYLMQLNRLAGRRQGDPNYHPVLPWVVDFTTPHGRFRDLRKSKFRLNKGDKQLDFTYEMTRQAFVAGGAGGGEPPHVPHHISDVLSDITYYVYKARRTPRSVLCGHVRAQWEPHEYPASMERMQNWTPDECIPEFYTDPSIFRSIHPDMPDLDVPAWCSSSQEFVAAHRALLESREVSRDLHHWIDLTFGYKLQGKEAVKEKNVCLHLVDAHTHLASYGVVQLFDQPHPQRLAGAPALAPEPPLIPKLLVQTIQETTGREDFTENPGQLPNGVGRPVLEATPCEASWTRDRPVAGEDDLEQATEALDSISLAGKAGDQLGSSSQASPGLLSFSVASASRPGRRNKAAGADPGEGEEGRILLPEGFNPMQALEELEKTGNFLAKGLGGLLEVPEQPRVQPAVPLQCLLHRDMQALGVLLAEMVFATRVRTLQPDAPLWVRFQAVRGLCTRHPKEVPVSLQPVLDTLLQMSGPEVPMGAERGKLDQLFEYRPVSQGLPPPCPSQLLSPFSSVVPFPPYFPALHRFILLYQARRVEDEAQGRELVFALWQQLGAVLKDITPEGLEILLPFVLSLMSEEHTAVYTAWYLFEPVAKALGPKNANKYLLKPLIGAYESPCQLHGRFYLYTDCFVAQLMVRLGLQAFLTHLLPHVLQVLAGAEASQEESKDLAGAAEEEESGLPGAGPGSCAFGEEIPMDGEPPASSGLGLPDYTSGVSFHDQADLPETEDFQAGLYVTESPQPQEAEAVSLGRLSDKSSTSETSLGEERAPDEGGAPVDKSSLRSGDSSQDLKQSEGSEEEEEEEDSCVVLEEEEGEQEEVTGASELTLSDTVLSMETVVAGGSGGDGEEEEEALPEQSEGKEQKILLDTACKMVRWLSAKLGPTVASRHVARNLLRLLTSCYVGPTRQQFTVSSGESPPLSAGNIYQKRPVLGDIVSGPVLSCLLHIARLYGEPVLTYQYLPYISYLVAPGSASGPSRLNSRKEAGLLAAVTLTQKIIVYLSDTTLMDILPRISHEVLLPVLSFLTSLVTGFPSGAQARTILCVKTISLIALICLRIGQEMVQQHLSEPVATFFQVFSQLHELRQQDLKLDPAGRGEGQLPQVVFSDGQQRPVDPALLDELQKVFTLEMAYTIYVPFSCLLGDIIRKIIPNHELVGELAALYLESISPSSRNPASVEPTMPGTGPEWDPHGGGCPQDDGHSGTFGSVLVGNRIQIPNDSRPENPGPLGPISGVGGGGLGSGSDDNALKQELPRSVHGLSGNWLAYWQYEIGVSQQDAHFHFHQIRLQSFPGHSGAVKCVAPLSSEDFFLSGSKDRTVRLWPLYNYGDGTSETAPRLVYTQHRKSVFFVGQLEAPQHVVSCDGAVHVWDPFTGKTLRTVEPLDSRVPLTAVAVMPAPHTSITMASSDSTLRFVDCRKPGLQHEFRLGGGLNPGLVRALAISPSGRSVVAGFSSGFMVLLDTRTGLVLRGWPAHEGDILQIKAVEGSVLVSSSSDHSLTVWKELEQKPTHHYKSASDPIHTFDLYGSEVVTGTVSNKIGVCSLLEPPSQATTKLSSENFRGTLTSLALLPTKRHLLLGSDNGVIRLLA
# UniProt P62258: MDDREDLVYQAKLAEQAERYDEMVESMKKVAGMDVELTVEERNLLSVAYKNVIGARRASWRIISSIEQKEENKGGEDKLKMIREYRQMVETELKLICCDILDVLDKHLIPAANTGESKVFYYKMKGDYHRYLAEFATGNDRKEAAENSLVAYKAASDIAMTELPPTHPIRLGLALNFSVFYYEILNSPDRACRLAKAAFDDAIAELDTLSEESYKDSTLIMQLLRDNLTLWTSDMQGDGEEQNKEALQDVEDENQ
# UniProt P61981: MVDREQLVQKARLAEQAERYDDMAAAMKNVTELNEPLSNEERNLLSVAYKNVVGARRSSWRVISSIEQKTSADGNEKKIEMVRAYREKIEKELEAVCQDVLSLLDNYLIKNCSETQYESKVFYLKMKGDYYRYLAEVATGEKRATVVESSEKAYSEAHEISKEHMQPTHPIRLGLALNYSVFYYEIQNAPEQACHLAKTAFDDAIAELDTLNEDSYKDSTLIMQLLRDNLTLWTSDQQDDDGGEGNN
# UniProt Q86VN1: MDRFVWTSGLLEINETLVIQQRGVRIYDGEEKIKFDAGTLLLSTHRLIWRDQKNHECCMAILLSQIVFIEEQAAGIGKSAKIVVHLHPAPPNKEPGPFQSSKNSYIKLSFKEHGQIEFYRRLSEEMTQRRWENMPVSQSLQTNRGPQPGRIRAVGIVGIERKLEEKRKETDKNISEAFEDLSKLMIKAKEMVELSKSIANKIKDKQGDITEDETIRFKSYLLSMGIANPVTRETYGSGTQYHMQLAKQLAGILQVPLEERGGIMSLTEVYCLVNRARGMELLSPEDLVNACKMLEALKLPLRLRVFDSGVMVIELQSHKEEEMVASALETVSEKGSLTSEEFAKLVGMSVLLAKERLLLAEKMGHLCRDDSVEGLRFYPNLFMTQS
# UniProt Q15836, whole entry: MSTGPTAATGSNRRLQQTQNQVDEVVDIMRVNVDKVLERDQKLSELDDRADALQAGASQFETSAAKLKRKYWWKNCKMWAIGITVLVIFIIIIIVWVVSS
# UniProt O75132: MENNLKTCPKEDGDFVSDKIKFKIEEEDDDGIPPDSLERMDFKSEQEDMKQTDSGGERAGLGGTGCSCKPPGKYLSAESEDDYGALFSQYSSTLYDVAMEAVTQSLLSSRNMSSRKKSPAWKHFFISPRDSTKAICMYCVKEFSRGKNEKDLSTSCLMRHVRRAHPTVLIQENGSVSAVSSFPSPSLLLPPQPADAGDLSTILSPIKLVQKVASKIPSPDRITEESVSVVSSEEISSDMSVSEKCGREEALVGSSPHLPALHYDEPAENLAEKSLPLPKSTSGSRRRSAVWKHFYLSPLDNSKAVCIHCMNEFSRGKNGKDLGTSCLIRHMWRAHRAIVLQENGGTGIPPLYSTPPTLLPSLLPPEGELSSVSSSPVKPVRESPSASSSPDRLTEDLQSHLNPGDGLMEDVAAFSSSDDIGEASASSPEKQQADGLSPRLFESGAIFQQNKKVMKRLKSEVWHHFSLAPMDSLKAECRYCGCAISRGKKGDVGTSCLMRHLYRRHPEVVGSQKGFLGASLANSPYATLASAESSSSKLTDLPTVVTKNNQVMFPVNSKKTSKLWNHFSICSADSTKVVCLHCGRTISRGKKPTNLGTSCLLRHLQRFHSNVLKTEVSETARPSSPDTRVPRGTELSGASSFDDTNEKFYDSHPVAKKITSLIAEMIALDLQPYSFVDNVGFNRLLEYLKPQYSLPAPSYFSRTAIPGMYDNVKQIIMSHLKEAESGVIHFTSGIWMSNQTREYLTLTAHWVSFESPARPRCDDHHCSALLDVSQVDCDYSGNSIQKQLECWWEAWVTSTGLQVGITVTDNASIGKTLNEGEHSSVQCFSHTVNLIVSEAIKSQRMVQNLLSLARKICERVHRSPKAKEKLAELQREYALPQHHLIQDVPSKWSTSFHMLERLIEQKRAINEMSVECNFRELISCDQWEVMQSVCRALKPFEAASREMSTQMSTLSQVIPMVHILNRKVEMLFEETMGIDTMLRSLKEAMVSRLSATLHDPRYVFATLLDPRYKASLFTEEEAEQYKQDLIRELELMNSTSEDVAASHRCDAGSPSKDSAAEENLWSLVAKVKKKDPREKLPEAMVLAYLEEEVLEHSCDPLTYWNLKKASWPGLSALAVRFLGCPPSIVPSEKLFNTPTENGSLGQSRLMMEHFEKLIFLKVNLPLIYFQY
# UniProt Q9Y4P8: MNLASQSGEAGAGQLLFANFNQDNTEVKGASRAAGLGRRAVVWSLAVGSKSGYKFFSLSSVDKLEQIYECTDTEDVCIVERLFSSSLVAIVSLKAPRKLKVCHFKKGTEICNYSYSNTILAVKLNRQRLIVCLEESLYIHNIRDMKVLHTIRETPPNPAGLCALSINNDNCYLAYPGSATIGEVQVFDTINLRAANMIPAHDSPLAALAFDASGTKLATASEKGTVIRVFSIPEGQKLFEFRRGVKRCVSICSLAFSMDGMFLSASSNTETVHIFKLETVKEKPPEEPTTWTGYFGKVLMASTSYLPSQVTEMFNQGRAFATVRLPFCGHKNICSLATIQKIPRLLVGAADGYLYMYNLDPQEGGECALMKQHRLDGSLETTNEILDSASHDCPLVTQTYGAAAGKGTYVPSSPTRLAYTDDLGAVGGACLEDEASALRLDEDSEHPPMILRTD
# UniProt Q5MNZ6: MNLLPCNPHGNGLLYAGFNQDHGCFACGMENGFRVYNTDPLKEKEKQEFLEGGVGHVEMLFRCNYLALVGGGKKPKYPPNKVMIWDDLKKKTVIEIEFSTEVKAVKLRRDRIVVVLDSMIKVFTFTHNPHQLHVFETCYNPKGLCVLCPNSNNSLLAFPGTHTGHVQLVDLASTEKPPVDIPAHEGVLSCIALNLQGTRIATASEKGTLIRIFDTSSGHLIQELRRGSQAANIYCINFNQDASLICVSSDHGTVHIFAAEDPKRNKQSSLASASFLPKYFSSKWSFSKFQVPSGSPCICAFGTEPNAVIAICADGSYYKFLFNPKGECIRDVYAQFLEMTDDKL
# Some of the results follow.
# Compound: COc1ccc(Cn2ccc3ccc(C(=O)NO)cc32)cc1
# Experiment: dose-dependent thermal stabilisation call (2D-TPP, DLPTP, 10% FDR) (binary (1 = stabilised)); higher = stabilised by the compound
# Details: system: HL-60 intact cells; concentration range 0.04-10 µM
row,Target,dose-dependent thermal stabilisation call
1,VPS72 (UniProt Q15906),inactive: 0
2,WDR91 (UniProt A4D1P6),inactive: 0
3,VRK3 (UniProt Q8IV63),inactive: 0
4,XPR1 (UniProt Q9UBH6),inactive: 0
5,ZFYVE19 (UniProt Q96K21),inactive: 0
6,YLPM1 (UniProt P49750),inactive: 0
7,VPS33B (UniProt Q9H267),inactive: 0
8,ZBTB43 (UniProt O43298),inactive: 0
9,VPS33A (UniProt Q96AX1),inactive: 0
10,VPS13C (UniProt Q709C8),inactive: 0
11,ZNF146 (UniProt Q15072),inactive: 0
12,WDR81 (UniProt Q562E7),inactive: 0
13,WDR44 (UniProt Q5JSH3),inactive: 0
14,VDAC1 (UniProt P21796),inactive: 0
15,YWHAE (UniProt P62258),inactive: 0
16,XIAP (UniProt P98170),inactive: 0
17,YWHAG (UniProt P61981),inactive: 0
18,VPS36 (UniProt Q86VN1),inactive: 0
19,ZFAND5 (UniProt O76080),inactive: 0
20,VAMP3 (UniProt Q15836),inactive: 0
21,VPS45 (UniProt Q9NRW7),inactive: 0
22,XPC (UniProt Q01831),inactive: 0
23,ZBED4 (UniProt O75132),inactive: 0
24,WDR5 (UniProt P61964),inactive: 0
25,WIPI2 (UniProt Q9Y4P8),inactive: 0
26,WDR45L (UniProt Q5MNZ6),inactive: 0
27,VCPIP1 (UniProt Q96JH7),inactive: 0

# Shown bar-delimited: part of the list above.
row | Target | dose-dependent thermal stabilisation call
12 | WDR81 (UniProt Q562E7) | inactive: 0
17 | YWHAG (UniProt P61981) | inactive: 0
